Reference: patent US20120045785A1
Results are given in words; binding and its absence hold for the method and conditions named. Some binding calls cover weakened binding; strength is not graded here.

Target: HtubB (Hybrid tubulin B; hybrid bacterial-bovine tubulin B) (Prosthecobacter dejongeii)
Assay: gel filtration chromatography of a 1:1 mixture of the purified proteins

binding: binds
B1: HtubA (Hybrid tubulin A; hybrid bacterial-bovine tubulin A) (designed binder, not shown: large carriers)
chain: MKVNNTIVVSIGQAGNQIAASFWKTVCLEHGIDPLTGQTAPGVAPRGNWSSFFSKLGESSSGSYVPRAIMVDLEPSVIDNVKATSGSLFNPANLISRTEGAGGNFAVGYLGAGREVLPEVMSRLDYEIDKCDNVGGIIVLHAIGGGTGSGFGALLISSLREEYPDIPVLSCAVLPSPQVSSVVTEPYNTVFALHQLVENADACLIFDNEALFDLAHRKWNIESPTVDDLNLLITEALAGITASMRFSGFLTVEITLRELLTNLVPQPRLHFLMCAFAPLTPPDRSKFEELGIEEMIKSLFDNGSVFAACSPMEGRFLSTAVLYRGIMEDKPLADAALAAMREKLPLTEWIPTAFKIGYVEQPGISHRKSMVLLANNTEIARVLDRICHNFDKLWQRKAFANWYLNEGMDEMEITELRSNANDLVSEYQQAQDSGAKAKVQDSAGDTGMRAAAAGVSDDARGSMSLRDLVDRRR
